# Reference: the supplement of paper PMC8728848
# This is one part of the list.
# B1: Erv46-EDTA (Saccharomyces cerevisiae), P39727 (protein)
# chain: MKFLVNVALVFMVVYISYIYAAAPEHHHHHHDYDIPTTENLYFQGAMDSVVTRPQLVVDRDRHAKLELNMDVTFPSMPCDLVNLDIMDDSGEMQLDILDAGFTMSRLNSEGRPVGDATELHVGGNGDGTAPVNNDPNYCGPCYGAKDQSQNENLAQEEKVCCQDCDAVRSAYLEAGWAFFDGKNIEQCEREGYVSKINEHLNEGCRIKGSAQINRIQGNLHFAPGKPYQNAYGHFHDTSLYDKTSNLNFNHIINHLSFGKPIQSHSKLLGNDKRHGGAVVATSPLDGRQVFPDRNTHFHQFSYFAKIVPTRYEYLDNVVIETAQFSATFHSRPLAGGRDKDHPNTLHVRGGIPGMFVFFEMSPLKVINKEQ
# Key:
# Assay in all cases: glycan array binding signal (z-score within array); higher = stronger binding
# Details in all cases: glycan notation: IUPAC condensed, linker removed
# [1] = molecular target: Fuc(a1-2)[Gal(a1-3)]Gal(b1-4)GlcNAc(b1-2)Man(a1-3)[Fuc(a1-2)[Gal(a1-3)]Gal(b1-4)GlcNAc(b1-2)Man(a1-6)]Man(b1-4)GlcNAc(b1-4)GlcNAc
# Method in brief: (§1)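 The binding signal is a Z-score computed within each array. Data were drawn from 3228 arrays in the Consortium for Functional Glycomics database, restricted to those with a known protein sequence. Scores were averaged over arrays of the same protein sequence at different concentrations or buffers, and over linkers, and negative values can be taken as non-binding.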
# [2] = molecular target: Fuc(a1-2)[Gal(a1-3)]Gal(b1-4)GlcNAc(b1-2)Man(a1-3)[Fuc(a1-2)[Gal(a1-3)]Gal(b1-4)GlcNAc(b1-2)Man(a1-6)]Man(b1-4)GlcNAc(b1-4)[Fuc(a1-6)]GlcNAc
# Method in brief: as §1
# [3] = molecular target: Fuc(a1-2)[Gal(a1-3)]Gal(b1-4)GlcNAc(b1-3)GalNAc
# Method in brief: as §1
# [4] = molecular target: Fuc(a1-2)[Gal(a1-3)]Gal(b1-4)GlcNAc(b1-3)[Fuc(a1-2)[Gal(a1-3)]Gal(b1-4)GlcNAc(b1-6)]GalNAc
# Method in brief: as §1
# [5] = molecular target: Fuc(a1-2)[Gal(a1-3)]Gal(b1-4)GlcNAc(b1-6)GalNAc
# Method in brief: as §1
# [6] = molecular target: Fuc(a1-2)[Gal(a1-3)]Gal(b1-4)[Fuc(a1-3)]Glc
# Method in brief: as §1
# [7] = molecular target: Fuc(a1-2)[Gal(a1-3)]Gal(b1-4)[Fuc(a1-3)]GlcNAc
# Method in brief: as §1
# [8] = molecular target: Fuc(a1-2)[Gal(a1-3)]Gal(b1-4)[Fuc(a1-3)]GlcNAc(b1-3)GalNAc
# Method in brief: as §1
# [9] = molecular target: Fuc(a1-2)[Gal(a1-4)]Gal(b1-4)GlcNAc
# Method in brief: as §1
# [10] = molecular target: Fuc(a1-2)[GalNAc(a1-3)]Gal
# Method in brief: as §1
# [11] = molecular target: Fuc(a1-2)[GalNAc(a1-3)]Gal(b1-3)GalNAc(a1-3)[Fuc(a1-2)]Gal(b1-4)GlcNAc
# Method in brief: as §1
# [12] = molecular target: Fuc(a1-2)[GalNAc(a1-3)]Gal(b1-3)GalNAc(b1-3)Gal(a1-4)Gal(b1-4)Glc
# Method in brief: as §1
# [13] = molecular target: Fuc(a1-2)[GalNAc(a1-3)]Gal(b1-3)GlcNAc
# Method in brief: as §1
# [14] = molecular target: Fuc(a1-2)[GalNAc(a1-3)]Gal(b1-3)GlcNAc(b1-2)Man(a1-3)[Fuc(a1-2)[GalNAc(a1-3)]Gal(b1-3)GlcNAc(b1-2)Man(a1-6)]Man(b1-4)GlcNAc(b1-4)GlcNAc
# Method in brief: as §1
# [15] = molecular target: Fuc(a1-2)[GalNAc(a1-3)]Gal(b1-3)GlcNAc(b1-2)Man(a1-3)[Fuc(a1-2)[GalNAc(a1-3)]Gal(b1-3)GlcNAc(b1-2)Man(a1-6)]Man(b1-4)GlcNAc(b1-4)[Fuc(a1-6)]GlcNAc
# Method in brief: as §1
# [16] = molecular target: Fuc(a1-2)[GalNAc(a1-3)]Gal(b1-3)GlcNAc(b1-3)GalNAc
# Method in brief: as §1
# [17] = molecular target: Fuc(a1-2)[GalNAc(a1-3)]Gal(b1-3)GlcNAc(b1-6)GalNAc
# Method in brief: as §1
# [18] = molecular target: Fuc(a1-2)[GalNAc(a1-3)]Gal(b1-4)Glc
# Method in brief: as §1
# [19] = molecular target: Fuc(a1-2)[GalNAc(a1-3)]Gal(b1-4)GlcNAc
# Method in brief: as §1
# [20] = molecular target: Fuc(a1-2)[GalNAc(a1-3)]Gal(b1-4)GlcNAc(b1-2)Man
# Method in brief: as §1
# [21] = molecular target: Fuc(a1-2)[GalNAc(a1-3)]Gal(b1-4)GlcNAc(b1-2)Man(a1-3)[Fuc(a1-2)[GalNAc(a1-3)]Gal(b1-4)GlcNAc(b1-2)Man(a1-6)]Man(b1-4)GlcNAc(b1-4)GlcNAc
# Method in brief: as §1
# [22] = molecular target: Fuc(a1-2)[GalNAc(a1-3)]Gal(b1-4)GlcNAc(b1-2)Man(a1-3)[Fuc(a1-2)[GalNAc(a1-3)]Gal(b1-4)GlcNAc(b1-2)Man(a1-6)]Man(b1-4)GlcNAc(b1-4)[Fuc(a1-6)]GlcNAc
# Method in brief: as §1
# [23] = molecular target: Fuc(a1-2)[GalNAc(a1-3)]Gal(b1-4)GlcNAc(b1-3)Gal(b1-4)GlcNAc
# Method in brief: as §1
# [24] = molecular target: Fuc(a1-2)[GalNAc(a1-3)]Gal(b1-4)GlcNAc(b1-3)Gal(b1-4)GlcNAc(b1-3)Gal(b1-4)GlcNAc
# Method in brief: as §1
# [25] = molecular target: Fuc(a1-2)[GalNAc(a1-3)]Gal(b1-4)GlcNAc(b1-3)GalNAc
# Method in brief: as §1
# [26] = molecular target: Fuc(a1-2)[GalNAc(a1-3)]Gal(b1-4)GlcNAc(b1-3)[Fuc(a1-2)[GalNAc(a1-3)]Gal(b1-4)GlcNAc(b1-6)]GalNAc
# Method in brief: as §1
# [27] = molecular target: Fuc(a1-2)[GalNAc(a1-3)]Gal(b1-4)GlcNAc(b1-6)GalNAc
# Method in brief: as §1
# [28] = molecular target: Fuc(a1-2)[GalNAc(a1-3)]Gal(b1-4)[Fuc(a1-3)]GlcNAc
# Method in brief: as §1
# [29] = molecular target: Fuc(a1-2)[GalNAc(a1-3)]Gal(b1-4)[Fuc(a1-3)]GlcNAc(b1-3)GalNAc
# Method in brief: as §1
# [30] = molecular target: Fuc(a1-2)[GalNAc(a1-4)]Gal(b1-4)GlcNAc
# Method in brief: as §1
# [31] = molecular target: Fuc(a1-2)[GalNAc(b1-3)]Gal
# Method in brief: as §1
# Fuc(a1-3)GlcNAc = molecular target: Fuc(a1-3)GlcNAc
# Method in brief: as §1
# [32] = molecular target: Fuc(a1-3)[Gal(b1-4)]Glc6S
# Method in brief: as §1
# [33] = molecular target: Fuc(a1-3)[Gal(b1-4)]GlcNAc
# Method in brief: as §1
# [34] = molecular target: Fuc(a1-3)[Gal(b1-4)]GlcNAc(b1-2)Man
# Method in brief: as §1
# [35] = molecular target: Fuc(a1-3)[Gal(b1-4)]GlcNAc(b1-2)Man(a1-3)[Fuc(a1-3)[Gal(b1-4)]GlcNAc(b1-2)Man(a1-6)]Man(b1-4)GlcNAc(b1-4)GlcNAc
# Method in brief: as §1
# [36] = molecular target: Fuc(a1-3)[Gal(b1-4)]GlcNAc(b1-2)Man(a1-3)[Fuc(a1-3)[Gal(b1-4)]GlcNAc(b1-2)Man(a1-6)]Man(b1-4)GlcNAc(b1-4)[Fuc(a1-6)]GlcNAc
# Method in brief: as §1
binder,measurement,setting,value
B1,glycan array binding signal (z-score),[1],-0.325
same,glycan array binding signal (z-score),[2],-0.448
same,glycan array binding signal (z-score),[3],-0.658
same,glycan array binding signal (z-score),[4],-0.131
same,glycan array binding signal (z-score),[5],-0.865
same,glycan array binding signal (z-score),[6],0.069
same,glycan array binding signal (z-score),[7],-0.508
same,glycan array binding signal (z-score),[8],0.181
same,glycan array binding signal (z-score),[9],-0.193
same,glycan array binding signal (z-score),[10],-0.619
same,glycan array binding signal (z-score),[11],-0.454
same,glycan array binding signal (z-score),[12],-0.284
same,glycan array binding signal (z-score),[13],-0.201
same,glycan array binding signal (z-score),[14],0.12
same,glycan array binding signal (z-score),[15],0.038
same,glycan array binding signal (z-score),[16],0.101
same,glycan array binding signal (z-score),[17],-0.826
same,glycan array binding signal (z-score),[18],-0.136
same,glycan array binding signal (z-score),[19],-0.358
same,glycan array binding signal (z-score),[20],-0.576
same,glycan array binding signal (z-score),[21],0.068
same,glycan array binding signal (z-score),[22],0.123
same,glycan array binding signal (z-score),[23],0.084
same,glycan array binding signal (z-score),[24],-0.164
same,glycan array binding signal (z-score),[25],-0.407
same,glycan array binding signal (z-score),[26],-0.525
same,glycan array binding signal (z-score),[27],-0.12
same,glycan array binding signal (z-score),[28],1.54
same,glycan array binding signal (z-score),[29],1.58
same,glycan array binding signal (z-score),[30],-0.433
same,glycan array binding signal (z-score),[31],0.043
same,glycan array binding signal (z-score),Fuc(a1-3)GlcNAc,0.257
same,glycan array binding signal (z-score),[32],0.276
same,glycan array binding signal (z-score),[33],0.177
same,glycan array binding signal (z-score),[34],-0.264
same,glycan array binding signal (z-score),[35],-0.518
same,glycan array binding signal (z-score),[36],0.26

# Exported tab-delimited: part of the list above.
binder	measurement	setting	value
B1	glycan array binding signal (z-score)	[11]	-0.454
same	glycan array binding signal (z-score)	[12]	-0.284
same	glycan array binding signal (z-score)	[13]	-0.201
same	glycan array binding signal (z-score)	[14]	0.12
same	glycan array binding signal (z-score)	[15]	0.038
same	glycan array binding signal (z-score)	[16]	0.101
same	glycan array binding signal (z-score)	[17]	-0.826
same	glycan array binding signal (z-score)	[18]	-0.136
same	glycan array binding signal (z-score)	[19]	-0.358
